Measurements reported in PubChem BioAssay AID1508597 (Cure First, 2020)
Test: 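Knock-downs altering ovarian cancer cell survival with or without PARP inhibitor rucaparib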 (primary screen). Cells: human ovarian carcinoma lines grown from tumours: OCI-P5x (papillary serous) and OCI-C5x (clear cell). Reagent: siRNA pool against human genes, 1.25 pmol siRNA per well. Time to read-out: 72 h or 96 h, depending on the cell culture. Treatment: rucaparib 20 µM (about IC30) or vehicle, present until read-out. Measured: 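Luminescent ATP-based viability assay read 72 or 96 h after transfection, depending on culture, given as normalised percent viability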. Reading the numbers: viability, normalised: higher = more viable cells remaining. Call rule: 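a well counts as a hit if its normalised viability is under 80 percent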. Meaning of the calls: active = viability under 80%; inactive = viability 80% or more.
Here is one part, drawn at random, of about 2,100 reagents tested. 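Calls flag viability under 80% in either arm, not effects specific to rucaparib; the reference for percent is not stated.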 Entries without a mark were called inactive. Reagent sequences are not shown. Not given: the 100% reference.

gene symbol,rucaparib or vehicle,cell line,technical replicate,"viability, normalised (%)"
IP6K1,Rucaparib,OCI-C5x (clear cell),1,35 (active)
IP6K1,Rucaparib,OCI-C5x (clear cell),2,53.3 (active)
IP6K1,Rucaparib,OCI-C5x (clear cell),3,36.9 (active)
IP6K1,Rucaparib,OCI-P5x (serous),1,72.1 (active)
IP6K1,Rucaparib,OCI-P5x (serous),2,64.5 (active)
IP6K1,Rucaparib,OCI-P5x (serous),3,73.4 (active)
IP6K1,Vehicle,OCI-C5x (clear cell),1,43.7 (active)
IP6K1,Vehicle,OCI-C5x (clear cell),2,49.6 (active)
IP6K1,Vehicle,OCI-C5x (clear cell),3,36.3 (active)
IP6K1,Vehicle,OCI-P5x (serous),1,71.3 (active)
IP6K1,Vehicle,OCI-P5x (serous),2,61.9 (active)
IP6K1,Vehicle,OCI-P5x (serous),3,61.9 (active)
RHO,Rucaparib,OCI-C5x (clear cell),1,36 (active)
RHO,Rucaparib,OCI-C5x (clear cell),2,29.6 (active)
RHO,Rucaparib,OCI-C5x (clear cell),3,21.8 (active)
RHO,Rucaparib,OCI-P5x (serous),1,30.2 (active)
RHO,Rucaparib,OCI-P5x (serous),2,44.2 (active)
RHO,Rucaparib,OCI-P5x (serous),3,31 (active)
RHO,Vehicle,OCI-C5x (clear cell),1,26.2 (active)
RHO,Vehicle,OCI-C5x (clear cell),2,18.2 (active)
RHO,Vehicle,OCI-C5x (clear cell),3,23.3 (active)
RHO,Vehicle,OCI-P5x (serous),1,45.9 (active)
RHO,Vehicle,OCI-P5x (serous),2,46.4 (active)
RHO,Vehicle,OCI-P5x (serous),3,66.1 (active)
MAK,Rucaparib,OCI-C5x (clear cell),1,54.6 (active)
MAK,Rucaparib,OCI-C5x (clear cell),2,52.8 (active)
MAK,Rucaparib,OCI-C5x (clear cell),3,61.6 (active)
MAK,Rucaparib,OCI-P5x (serous),1,94.2
MAK,Rucaparib,OCI-P5x (serous),2,79 (active)
MAK,Rucaparib,OCI-P5x (serous),3,86.2
MAK,Vehicle,OCI-C5x (clear cell),1,51.9 (active)
MAK,Vehicle,OCI-C5x (clear cell),2,56.6 (active)
MAK,Vehicle,OCI-C5x (clear cell),3,60 (active)
MAK,Vehicle,OCI-P5x (serous),1,105
MAK,Vehicle,OCI-P5x (serous),2,94.6
MAK,Vehicle,OCI-P5x (serous),3,110
CLU,Rucaparib,OCI-C5x (clear cell),1,56.5 (active)
CLU,Rucaparib,OCI-C5x (clear cell),2,52.9 (active)
CLU,Rucaparib,OCI-C5x (clear cell),3,39.6 (active)
CLU,Rucaparib,OCI-P5x (serous),1,67 (active)
CLU,Rucaparib,OCI-P5x (serous),2,80.4
CLU,Rucaparib,OCI-P5x (serous),3,61.1 (active)
CLU,Vehicle,OCI-C5x (clear cell),1,41.3 (active)
CLU,Vehicle,OCI-C5x (clear cell),2,29.9 (active)
CLU,Vehicle,OCI-C5x (clear cell),3,47.3 (active)
CLU,Vehicle,OCI-P5x (serous),1,67.1 (active)
CLU,Vehicle,OCI-P5x (serous),2,76.3 (active)
CLU,Vehicle,OCI-P5x (serous),3,54.8 (active)
FTO,Rucaparib,OCI-C5x (clear cell),1,38.2 (active)
FTO,Rucaparib,OCI-C5x (clear cell),2,36.8 (active)
FTO,Rucaparib,OCI-C5x (clear cell),3,42.9 (active)
FTO,Rucaparib,OCI-P5x (serous),1,54.3 (active)
FTO,Rucaparib,OCI-P5x (serous),2,42 (active)
FTO,Rucaparib,OCI-P5x (serous),3,87
FTO,Vehicle,OCI-C5x (clear cell),1,65.5 (active)
FTO,Vehicle,OCI-C5x (clear cell),2,63.6 (active)
FTO,Vehicle,OCI-C5x (clear cell),3,55 (active)
FTO,Vehicle,OCI-P5x (serous),1,84.3
FTO,Vehicle,OCI-P5x (serous),2,98.1
FTO,Vehicle,OCI-P5x (serous),3,91.7

Look-ups from the list:
Under “viability, normalised (%)”, RHO, rucaparib or vehicle Rucaparib, cell line OCI-P5x (serous), technical replicate 2 shows 44.2 (active)
For “viability, normalised (%)”, RHO, rucaparib or vehicle Vehicle, cell line OCI-P5x (serous), technical replicate 2 is entered as 46.4 (active)
For “viability, normalised (%)”, CLU, rucaparib or vehicle Vehicle, cell line OCI-P5x (serous), technical replicate 3 has 54.8 (active)
For “viability, normalised (%)”, CLU, rucaparib or vehicle Vehicle, cell line OCI-C5x (clear cell), technical replicate 1 is entered as 41.3 (active)
Under “viability, normalised (%)”, IP6K1, rucaparib or vehicle Vehicle, cell line OCI-C5x (clear cell), technical replicate 2 shows 49.6 (active)
Under “viability, normalised (%)”, RHO, rucaparib or vehicle Rucaparib, cell line OCI-C5x (clear cell), technical replicate 1 has 36 (active)
